# Some of the results follow. The main result of the screen is listed elsewhere. These columns were measured beside it and carry no call. The list favours compounds with an active or inconclusive main result. Words in brackets tell the shape of the fitted curve; partial curves, single points and poor fits give uncertain potencies.
# Experiment: qHTS Assay to Find Inhibitors of Chronic Active B-Cell Receptor Signaling
# Details: ABC-DLBCL IkBa-CBG/CBR reporter, luminescence ratio (green luciferase fused to IkBa over red control in TMD8 lymphoma cells), 4 h
# Method in brief: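 Doxycycline induced both beetle luciferases in TMD8 lymphoma cells; IKK-driven degradation limits the IkappaBalpha-fused green signal, while red luminescence normalises for cell number and nonspecific effects. Compounds tested up to 46 uM, 4 hrs.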
# [1] = measured here: CBR red luminescence, cell number
# [2] = measured here: IkBa-CBG green luminescence
smiles,measurement,setting,value
Cc1nn2c(N3CCCC3)cc(C(C)C)nc2c1-c1ccccc1,AC50,[1],"1.78 µM [rising, partial curve, poor fit]"
Clc1ccc(Nc2nc3cccnc3s2)cc1,AC50,[1],"0.562 µM [rising, full curve]"
O=C(COc1ccccc1)NCc1ccccc1,AC50,[1],"32.6 µM [rising, single point]"
O=C(COC(=O)/C=C/c1ccccc1Cl)Nc1cccnc1Cl,AC50,[1],"0.92 µM [rising, full curve]"
O=C(CN(Cc1ccccc1Cl)S(=O)(=O)c1ccc(Cl)cc1)N/N=C/c1ccc(C(=O)O)cc1,AC50,[1],"6.31 µM [falling, partial curve]"
COc1ccc(C(=O)NC(C)CCc2ccccc2)cc1[N+](=O)[O-] (configuration not stated),AC50,[1],"12.6 µM [rising, partial curve, poor fit]"
CCOc1ccc(CN2CCN(Cc3cn(CC)nc3C)CC2CCO)cc1 (configuration not stated),AC50,[1],"5.62 µM [rising, single point]"
CCN1CCCC1CNCc1cc(OC)c(OC)c(OC)c1 (configuration not stated),AC50,[1],"6.51 µM [falling, single point]"
COc1ccc(C2=NN(C(C#N)c3ccc(OC)cc3)C(c3ccccc3)C2)cc1 (configuration not stated),AC50,[1],"0.411 µM [rising, full curve, poor fit]"
CC1CCCC(C)N1C(=O)c1cccc2c1-c1ccccc1/C2=N/O (configuration not stated),AC50,[1],"7.31 µM [falling, partial curve, poor fit]"
CN(Cc1ccccc1)C1=CC(=[N+]2CCCCC2)CC(C)(C)C1,AC50,[1],"10 µM [falling, partial curve]"
COc1ccc(-c2cc(C(=O)N3CCN(c4ccccc4)CC3)c3ccccc3n2)cc1OC,AC50,[1],"29.1 µM [falling, single point]"
O=C(NCc1cccc(Cl)c1)c1ccco1,AC50,[1],"6.51 µM [rising, single point]"
CC(C)(C)C(=O)NC(=S)NNC(=O)c1ccc(-c2ccccc2)cc1,AC50,[1],"11.2 µM [rising, partial curve, poor fit]"
same,AC50,[2],"10 µM [falling, partial curve]"
N#CC1=C(N)N2C(=C(C#N)C1c1cccc(Br)c1)Nc1ccccc12 (configuration not stated),AC50,[1],"5.8 µM [falling, full curve, poor fit]"
COc1ccccc1C1=NNC(=NCc2ccccc2)SC1,AC50,[1],"0.112 µM [falling, full curve, poor fit]"
COC(=O)C1=C(C)NC(=S)NC1c1ccc(OCC(=O)N2CC(C)OC(C)C2)c(OC)c1 (configuration not stated),AC50,[1],"9.2 µM [rising, partial curve, poor fit]"
Cc1cc(C)c(C#N)c(OCC(=O)c2ccc(Br)cc2)n1,AC50,[1],"2.51 µM [rising, full curve, poor fit]"
O=C(N1CCN(c2ccccn2)CC1)C(Cl)(Cl)Cl,AC50,[1],"1.64 µM [rising, partial curve]"
O=C(O)c1cccc(Cn2c(Cl)c(/C=N/NC(=O)c3ccc(O)cc3)sc2=O)c1,AC50,[1],"7.08 µM [falling, partial curve]"
O=C(Cc1ccc(Cl)cc1)Nc1ccc(C(=O)N2CCCCC2)cc1,AC50,[1],"12.6 µM [falling, partial curve]"
CN(C)c1ccc(/C=N\NC(=O)c2csnn2)cc1,AC50,[1],"7.08 µM [falling, full curve]"
c1ccc(CCNCC2COc3ccccc3O2)cc1 (configuration not stated),AC50,[1],"5.62 µM [rising, single point]"
Cc1ccc(/C=N/Nc2nc(Cl)c(Cl)cc2Cl)s1,AC50,[1],"2.24 µM [rising, partial curve, poor fit]"
O=C(CCC(=O)OCC(=O)c1ccc([N+](=O)[O-])cc1)NC1CCCCC1,AC50,[1],"23.1 µM [falling, single point]"
C/C(CC(=O)Nc1ccc(N(C)C)cc1)=N\NC(=O)c1ccccn1,AC50,[1],"25.1 µM [falling, partial curve]"
O=C(CCN1C(=O)/C(=C/c2cccs2)SC1=S)Nc1ccc(O)cc1,AC50,[1],"0.316 µM [falling, full curve, poor fit]"
COc1cc(OC)cc(C(=O)NCCSc2c[nH]c3ccccc23)c1,AC50,[1],"11.2 µM [falling, partial curve, poor fit]"
CSc1ccc(/C=N/NC(=O)COc2ccc(Br)cc2Cl)cc1,AC50,[1],"20.6 µM [rising, single point]"
O=C1CCC(=O)N1c1ccccc1-c1ccccc1,AC50,[1],"10 µM [falling, partial curve]"
O=C(O)/C=C/c1ccc(-c2cccc(C(F)(F)F)c2)o1,AC50,[1],"7.94 µM [falling, partial curve, poor fit]"
COc1cc2c(cc1NC(=O)CSc1nnc(Cc3cccs3)n1C)oc1ccccc12,AC50,[2],"20.6 µM [rising, partial curve, poor fit]"
O=c1c(Cl)c(NC2CC2)cnn1-c1ccccc1,AC50,[1],"3.16 µM [rising, single point]"
O=C(Cn1cnc2c(oc3ccccc32)c1=O)c1ccccc1,AC50,[1],"2.51 µM [rising, partial curve, poor fit]"
COc1ccccc1-c1nnc(SCC(=O)NC2CCS(=O)(=O)C2)n1CCc1ccccc1 (configuration not stated),AC50,[1],"2.59 µM [rising, partial curve]"
O=Cc1c(Sc2ccccc2)nc2ccccn2c1=O,AC50,[1],"13 µM [falling, partial curve]"
N#Cc1c(N2CCCCC2)nc(N)c2c(N)nc3c(c12)CC(CCl)O3 (configuration not stated),AC50,[1],"0.251 µM [falling, full curve, poor fit]"
COc1ccc(-n2c(=S)[nH]c3c(oc4ccccc43)c2=O)cc1,AC50,[1],"16.4 µM [falling, single point]"
Cc1ccc(O)c(/C=N/NC(=O)c2[nH]ncc2Br)c1,AC50,[1],"2.91 µM [falling, partial curve]"
O=C(Nc1cccc(Cl)c1Cl)c1ccc(-c2ccccc2)cc1,AC50,[1],"4.47 µM [falling, full curve, poor fit]"
Cc1ccccc1C(=O)NC(C(N)=O)P(=O)(OC(C)C)OC(C)C (configuration not stated),AC50,[1],"0.1 µM [rising, full curve, poor fit]"
O=C(Nc1nnc(-c2ccccc2Cl)o1)c1ccco1,AC50,[1],"10.3 µM [falling, partial curve, poor fit]"
Cc1cc(C)cc(C(=O)NCCCc2ccccc2)c1,AC50,[1],"3.55 µM [rising, partial curve, poor fit]"
COC(=O)c1cc2oc(C)cc2n1CC(=O)N(C)c1ccccc1,AC50,[1],"16.4 µM [rising, partial curve]"
CN(c1ccccc1)S(=O)(=O)c1ccc2[nH]c(=O)oc2c1,AC50,[1],"35.5 µM [rising, single point]"
COc1cc2[nH]c3c(=O)n4c(nc3c2cc1OC)SCCC4,AC50,[1],"25.1 µM [falling, single point]"
Cc1cccc(C(=O)NNC(=O)c2cccc([N+](=O)[O-])c2)c1,AC50,[1],"10 µM [falling, partial curve]"
CCc1nnc(NC(=O)C2Cc3ccccc3CN2S(=O)(=O)c2c(C)c(C)cc(C)c2C)s1 (configuration not stated),AC50,[1],"6.51 µM [rising, single point]"
CCn1c(=O)cc(C(=O)OC)sc1=Nc1ccc(F)c(F)c1,AC50,[1],"1.84 µM [falling, full curve]"
O=C(O)Cc1sc(Nc2ccc(F)cc2)nc1-c1cccs1,AC50,[1],"35.5 µM [falling, single point]"
CCS(=O)(=O)c1c([N+](=O)[O-])ncn1C,AC50,[1],"18.4 µM [falling, partial curve, poor fit]"
same,AC50,[2],"23.1 µM [rising, partial curve, poor fit]"
COC(=O)c1sccc1NC(=O)c1ccc(C(C)C)cc1,AC50,[1],"0.251 µM [rising, full curve]"
O=C(NC1CCCCC1)c1cc(C2CC2)on1,AC50,[1],"5.01 µM [falling, partial curve, poor fit]"
CCn1c(SCC(=O)Nc2ccc(Cl)cc2)nnc1C1CC1,AC50,[1],"8.2 µM [falling, partial curve, poor fit]"
CCOc1cc(/C=N/n2c(C)nc3ccccc3c2=O)ccc1O,AC50,[1],"2.51 µM [falling, full curve]"
COc1cc2c(cc1OC)C1O[C@](CCCCN3C(=O)c4ccccc4C3=O)(C2)OC2=C1C(=O)OC1(CCCCC1)C2,AC50,[2],"3.55 µM [rising, partial curve, poor fit]"
Cc1cc(C)c(NC(=O)c2cn3c4c(c(N5CCN(C)CC5)c(F)cc4c2=O)OCC3C)c(C)c1 (configuration not stated),AC50,[1],"0.411 µM [falling, full curve, poor fit]"
Cc1cc(NC(=O)CSCC(=O)N(c2ccc(F)cc2)C(C(=O)NC2CCCCC2)c2ccc(O)c(O)c2)no1 (configuration not stated),AC50,[1],"5.17 µM [falling, partial curve]"
O=C(Nc1cccc(C(F)(F)F)c1)N1CCC(c2nc(-c3ccc(F)cc3)no2)CC1,AC50,[1],"25.9 µM [falling, single point]"
Cc1ccccc1NC(=O)CSc1nc(-c2ccccc2)cn1-c1ccccc1F,AC50,[1],"35.5 µM [falling, single point]"
CCOC(=O)c1sc2nccc(N(C)C)c2c1N=CNOC,AC50,[1],"2.91 µM [rising, single point]"
N=c1c2c3c(sc2nc2n1CCCCC2)CCCCC3,AC50,[1],"14.1 µM [rising, partial curve, poor fit]"
CCOc1ccc(S(=O)(=O)N2CCN(C(=O)c3ccco3)CC2)cc1,AC50,[1],"4.47 µM [rising, partial curve, poor fit]"
COc1ccccc1OCc1ccc(C(=O)Nc2ccc(Cl)cn2)o1,AC50,[1],"0.398 µM [falling, full curve, poor fit]"
Cc1cc(=O)n2[nH]c(-c3ccc(F)cc3)cc2n1,AC50,[1],"10 µM [falling, partial curve]"

# Rewritten bar-delimited: entries from further up
smiles | measurement | setting | value
O=C(CN(Cc1ccccc1Cl)S(=O)(=O)c1ccc(Cl)cc1)N/N=C/c1ccc(C(=O)O)cc1 | AC50 | [1] | 6.31 µM [falling, partial curve]
COc1ccc(C(=O)NC(C)CCc2ccccc2)cc1[N+](=O)[O-] (configuration not stated) | AC50 | [1] | 12.6 µM [rising, partial curve, poor fit]

# Looked up one by one from above (2):
smiles,measurement,setting,value
COc1cc(OC)cc(C(=O)NCCSc2c[nH]c3ccccc23)c1,AC50,[1],"11.2 µM [falling, partial curve, poor fit]"
CCN1CCCC1CNCc1cc(OC)c(OC)c(OC)c1 (configuration not stated),AC50,[1],"6.51 µM [falling, single point]"
